# Data as given in paper PMC8384837.
# Changes are numbered by the printed parent chain. The list shows a part of the results. For some assays here: At the low end of the ranking the order means little.
# Columns and labels:
# Conditions in all cases: yeast three-hybrid, YBZ-1, SC-Leu-His + 0.5 mM 3-AT, 4 days
# [1] = target: T1, PUM1 PUF domain R4-ACC N971A + H972C + Q975C (Homo sapiens) (UniProt Q14671)
# T1 sequence: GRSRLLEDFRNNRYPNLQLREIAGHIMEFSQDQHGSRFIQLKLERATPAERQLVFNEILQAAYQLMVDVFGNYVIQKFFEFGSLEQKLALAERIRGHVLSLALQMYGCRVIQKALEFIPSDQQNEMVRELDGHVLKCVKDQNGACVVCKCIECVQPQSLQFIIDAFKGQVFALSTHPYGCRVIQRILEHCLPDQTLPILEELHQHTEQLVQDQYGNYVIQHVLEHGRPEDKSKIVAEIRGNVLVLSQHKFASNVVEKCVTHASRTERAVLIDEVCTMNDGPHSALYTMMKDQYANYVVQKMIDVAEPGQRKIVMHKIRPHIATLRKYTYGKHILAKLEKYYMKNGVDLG
# [2] = target: T2, PUM1 PUF domain R4-CGC N971C + H972G + Q975C (Homo sapiens) (UniProt Q14671)
# T2 sequence: T1 sequence with A144C, C145G
# [3] = target: T3, PUM1 PUF domain R4-DWV N971D + H972W + Q975V (Homo sapiens) (UniProt Q14671)
# T3 sequence: T1 sequence with A144D, C145W, C148V
# [4] = target: T4, PUM1 PUF domain R4-FNA N971F + H972N + Q975A (Homo sapiens) (UniProt Q14671)
# T4 sequence: T1 sequence with A144F, C145N, C148A
# [5] = target: T5, PUM1 PUF domain R4-GQS N971G + H972Q + Q975S (Homo sapiens) (UniProt Q14671)
# T5 sequence: T1 sequence with A144G, C145Q, C148S
# [6] = target: T6, PUM1 PUF domain R4-GRN N971G + H972R + Q975N (Homo sapiens) (UniProt Q14671)
# T6 sequence: T1 sequence with A144G, C145R, C148N
# [7] = target: T7, PUM1 PUF domain R4-GRS N971G + H972R + Q975S (Homo sapiens) (UniProt Q14671)
# T7 sequence: T1 sequence with A144G, C145R, C148S
# [8] = target: T8, PUM1 PUF domain R4-MPT N971M + H972P + Q975T (Homo sapiens) (UniProt Q14671)
# T8 sequence: T1 sequence with A144M, C145P, C148T
# [9] = target: T9, PUM1 PUF domain R4-QRG N971Q + H972R + Q975G (Homo sapiens) (UniProt Q14671)
# T9 sequence: T1 sequence with A144Q, C145R, C148G
# [10] = target: T10, PUM1 PUF domain R4-RFP N971R + H972F + Q975P (Homo sapiens) (UniProt Q14671)
# T10 sequence: T1 sequence with A144R, C145F, C148P
# [11] = target: T11, PUM1 PUF domain R4-RGY N971R + H972G + Q975Y (Homo sapiens) (UniProt Q14671)
# T11 sequence: T1 sequence with A144R, C145G, C148Y
# [12] = target: T12, PUM1 PUF domain R4-RMI N971R + H972M + Q975I (Homo sapiens) (UniProt Q14671)
# T12 sequence: T1 sequence with A144R, C145M, C148I
# [13] = target: T13, PUM1 PUF domain R4-RMT N971R + H972M + Q975T (Homo sapiens) (UniProt Q14671)
# T13 sequence: T1 sequence with A144R, C145M, C148T
# [14] = target: T14, PUM1 PUF domain R4-SNG N971S + H972N + Q975G (Homo sapiens) (UniProt Q14671)
# T14 sequence: T1 sequence with A144S, C145N, C148G
# [15] = target: T15, PUM1 PUF domain R4-SPC N971S + H972P + Q975C (Homo sapiens) (UniProt Q14671)
# T15 sequence: T1 sequence with A144S, C145P
# [16] = target: T16, PUM1 PUF domain R4-SPQ N971S + H972P (Homo sapiens) (UniProt Q14671)
# T16 sequence: T1 sequence with A144S, C145P, C148Q
# [17] = target: T17, PUM1 PUF domain R4-SRC N971S + H972R + Q975C (Homo sapiens) (UniProt Q14671)
# T17 sequence: T1 sequence with A144S, C145R
# [18] = target: T18, PUM1 PUF domain R4-SRL N971S + H972R + Q975L (Homo sapiens) (UniProt Q14671)
# T18 sequence: T1 sequence with A144S, C145R, C148L
# [19] = target: T19, PUM1 PUF domain R4-YLL N971Y + H972L + Q975L (UniProt Q14671)
# T19 sequence: T1 sequence with A144Y, C145L, C148L
# [20] = target: T20, PUM1 PUF domain R4-YRC N971Y + H972R + Q975C (UniProt Q14671)
# T20 sequence: T1 sequence with A144Y, C145R
sequence,measurement,setting,value
GGCUAGAACUAGUGGAUCCCCCGGCGCCCGGCGGCUCGAGCCCGGGUAAGUGUACAUAGUCUGCAUGCCGCCGGGCGCCAUGCCUGCAGGUCGACUCUAGAAAACAUG,binding signal (log2 enrichment (interaction score)),[1],-0.05
same,binding signal (log2 enrichment (interaction score)),[2],-0.37
same,binding signal (log2 enrichment (interaction score)),[3],1.05
same,binding signal (log2 enrichment (interaction score)),[4],0.19
same,binding signal (log2 enrichment (interaction score)),[5],-1.84
same,binding signal (log2 enrichment (interaction score)),[6],-0.69
same,binding signal (log2 enrichment (interaction score)),[7],0.44
same,binding signal (log2 enrichment (interaction score)),[8],0.34
same,binding signal (log2 enrichment (interaction score)),[9],-0.31
same,binding signal (log2 enrichment (interaction score)),[10],0.36
same,binding signal (log2 enrichment (interaction score)),[11],0.16
same,binding signal (log2 enrichment (interaction score)),[12],0.42
same,binding signal (log2 enrichment (interaction score)),[13],-0.02
same,binding signal (log2 enrichment (interaction score)),[14],1.2
same,binding signal (log2 enrichment (interaction score)),[15],0.77
same,binding signal (log2 enrichment (interaction score)),[16],0.4
same,binding signal (log2 enrichment (interaction score)),[17],-0.59
same,binding signal (log2 enrichment (interaction score)),[18],-0.07
same,binding signal (log2 enrichment (interaction score)),[19],< -6.77
same,binding signal (log2 enrichment (interaction score)),[20],< -6.31

# Rewritten with bars between the fields: part of the list above
sequence | measurement | setting | value
GGCUAGAACUAGUGGAUCCCCCGGCGCCCGGCGGCUCGAGCCCGGGUAAGUGUACAUAGUCUGCAUGCCGCCGGGCGCCAUGCCUGCAGGUCGACUCUAGAAAACAUG | binding signal (log2 enrichment (interaction score)) | [18] | -0.07
same | binding signal (log2 enrichment (interaction score)) | [19] | < -6.77
